According to patent US10786451B2, “Process for preparing a dry powder formulation comprising an anticholinergic, a corticosteroid and a beta-adrenergic” (CHIESI FARMACEUTICI S.P.A., priority 2015, dated 2020):

Assay: Uniformity of distribution of the active ingredients in the blend (12 samples, HPLC)
Assay type: physicochemical
Procedure: In the context of the present application the flow properties were tested by measuring the flow rate through an orifice according to the method described in the European Pharmacopeia (Eur. Ph.) 8.6, 8th Edition, which is incorporated herein by reference in its entirety. […] It is usually determined according to known methods, for instance by taking samples from different parts of the powder and testing the component by HPLC or other equivalent analytical methods. The uniformity of distribution of the active ingredients was evaluated by withdrawing 12 samples from different parts of the blend and evaluated by HPLC.

For `C[N+]1(C)CCC(OC(=O)C(O)(c2ccccc2)C2CCCC2)C1` (centres unmarked) [GB, Glycopyrronium bromide], the Uniformity of distribution (powder formulation of Example 2 (6 μg FF, 100 μg BDP, 12.5 μg GB per 10 mg carrier), mean value, RSD in next column) was 100.8 and the Uniformity of distribution (powder formulation of Example 3 (6 μg FF, 100 μg BDP, 25 μg GB per 10 mg carrier)) was 101.5.
